Values of other authors as cited in patent US20240122878A1 (priority 2021, published 2024).

Target: N-methyl-D-aspartate receptors (NMDARs), MK-801 site
Settings: cited from earlier work

Compound: CCC(=O)C(C[C@H](C)N(C)C)(c1ccccc1)c1ccccc1 [esmethadone]
- IC50 at MK-801 site of NMDAR: low-micromolar
